# Reference: paper PMC8384837
# Changes are numbered by the printed parent chain. The list shows a part of the results. For some assays here: At the low end of the ranking the order means little.
# Tests used:
# Conditions in all cases: yeast three-hybrid, YBZ-1, SC-Leu-His + 0.5 mM 3-AT, 4 days
# [1] = biological target: T1, PUM1 PUF domain R3-DFL C935D + R936F + Q939L (Homo sapiens) (UniProt Q14671)
# T1 sequence: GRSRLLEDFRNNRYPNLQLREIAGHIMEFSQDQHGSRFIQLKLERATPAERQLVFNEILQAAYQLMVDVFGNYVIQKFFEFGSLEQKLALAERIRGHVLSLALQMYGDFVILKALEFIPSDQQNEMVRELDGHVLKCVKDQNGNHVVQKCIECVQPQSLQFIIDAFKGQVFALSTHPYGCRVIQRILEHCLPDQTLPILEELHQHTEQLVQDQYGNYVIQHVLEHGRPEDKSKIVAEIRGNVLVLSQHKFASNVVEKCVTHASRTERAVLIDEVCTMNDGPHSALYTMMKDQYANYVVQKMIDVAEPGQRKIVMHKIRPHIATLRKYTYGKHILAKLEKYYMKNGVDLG
# [2] = biological target: T2, PUM1 PUF domain R3-FCE C935F + R936C + Q939E (Homo sapiens) (UniProt Q14671)
# T2 sequence: T1 sequence with D108F, F109C, L112E
# [3] = biological target: T3, PUM1 PUF domain R3-IRC C935I + Q939C (Homo sapiens) (UniProt Q14671)
# T3 sequence: T1 sequence with D108I, F109R, L112C
# [4] = biological target: T4, PUM1 PUF domain R3-IWL C935I + R936W + Q939L (Homo sapiens) (UniProt Q14671)
# T4 sequence: T1 sequence with D108I, F109W
# [5] = biological target: T5, PUM1 PUF domain R3-PWW C935P + R936W + Q939W (Homo sapiens) (UniProt Q14671)
# T5 sequence: T1 sequence with D108P, F109W, L112W
# [6] = biological target: T6, PUM1 PUF domain R3-VCE C935V + R936C + Q939E (Homo sapiens) (UniProt Q14671)
# T6 sequence: T1 sequence with D108V, F109C, L112E
# [7] = biological target: T7, PUM1 PUF domain R3-WCA C935W + R936C + Q939A (Homo sapiens) (UniProt Q14671)
# T7 sequence: T1 sequence with D108W, F109C, L112A
# [8] = biological target: T8, PUM1 PUF domain R3-YCD C935Y + R936C + Q939D (Homo sapiens) (UniProt Q14671)
# T8 sequence: T1 sequence with D108Y, F109C, L112D
# [9] = biological target: T9, PUM1 PUF domain R3-YCV C935Y + R936C + Q939V (Homo sapiens) (UniProt Q14671)
# T9 sequence: T1 sequence with D108Y, F109C, L112V
# [10] = biological target: T10, PUM1 PUF domain R3-YRA C935Y + Q939A (Homo sapiens) (UniProt Q14671)
# T10 sequence: T1 sequence with D108Y, F109R, L112A
# [11] = biological target: T11, PUM1 PUF domain R3-YRQ C935Y (Homo sapiens) (UniProt Q14671)
# T11 sequence: T1 sequence with D108Y, F109R, L112Q
# [12] = biological target: T12, PUM1 PUF domain R8-RWR N1122R + Y1123W + Q1126R (UniProt Q14671)
# T12 sequence: T1 sequence with D108C, F109R, L112Q, N295R, Y296W, Q299R
# [13] = biological target: T13, PUM1 PUF domain R6-AFG N1043A + Y1044F + Q1047G (UniProt Q14671)
# T13 sequence: T1 sequence with D108C, F109R, L112Q, N216A, Y217F, Q220G
# [14] = biological target: T14, PUM1 PUF domain R6-GWE N1043G + Y1044W + Q1047E (UniProt Q14671)
# T14 sequence: T1 sequence with D108C, F109R, L112Q, N216G, Y217W, Q220E
# [15] = biological target: T15, PUM1 PUF domain R6-HFV N1043H + Y1044F + Q1047V (UniProt Q14671)
# T15 sequence: T1 sequence with D108C, F109R, L112Q, N216H, Y217F, Q220V
# [16] = biological target: T16, PUM1 PUF domain R6-SFG N1043S + Y1044F + Q1047G (UniProt Q14671)
# T16 sequence: T1 sequence with D108C, F109R, L112Q, N216S, Y217F, Q220G
# [17] = biological target: T17, PUM1 PUF domain R6-SFM N1043S + Y1044F + Q1047M (UniProt Q14671)
# T17 sequence: T1 sequence with D108C, F109R, L112Q, N216S, Y217F, Q220M
# [18] = biological target: T18, PUM1 PUF domain R6-SYS N1043S + Q1047S (UniProt Q14671)
# T18 sequence: T1 sequence with D108C, F109R, L112Q, N216S, Q220S
# [19] = biological target: T19, PUM1 PUF domain R6-VFS N1043V + Y1044F + Q1047S (UniProt Q14671)
# T19 sequence: T1 sequence with D108C, F109R, L112Q, N216V, Y217F, Q220S
# [20] = biological target: T20, PUM1 PUF domain R6-WWR N1043W + Y1044W + Q1047R (UniProt Q14671)
# T20 sequence: T1 sequence with D108C, F109R, L112Q, N216W, Y217W, Q220R
sequence,measurement,setting,value
GGCUAGAACUAGUGGAUCCCCCGGCGCCCGGCGGCUCGAGCCCGGGUAAGUGUAAUUAGUCUGCAUGCCGCCGGGCGCCAUGCCUGCAGGUCGACUCUAGAAAACAUG,binding signal (log2 enrichment (interaction score)),[1],-1.64
same,binding signal (log2 enrichment (interaction score)),[2],-1.62
same,binding signal (log2 enrichment (interaction score)),[3],-1.98
same,binding signal (log2 enrichment (interaction score)),[4],-1.43
same,binding signal (log2 enrichment (interaction score)),[5],-3.07
same,binding signal (log2 enrichment (interaction score)),[6],-3.59
same,binding signal (log2 enrichment (interaction score)),[7],-1.55
same,binding signal (log2 enrichment (interaction score)),[8],-2.68
same,binding signal (log2 enrichment (interaction score)),[9],-2.55
same,binding signal (log2 enrichment (interaction score)),[10],-2.45
same,binding signal (log2 enrichment (interaction score)),[11],-1.39
GGCUAGAACUAGUGGAUCCCCCGGCGCCCGGCGGCUCGAGCCCGGGUAAGAGUAAAUAGUCUGCAUGCCGCCGGGCGCCAUGCCUGCAGGUCGACUCUAGAAAACAUG,binding signal (log2 enrichment (interaction score)),[12],< -5.7
GGCUAGAACUAGUGGAUCCCCCGGCGCCCGGCGGCUCGAGCCCGGGUAAGUGCAAAUAGUCUGCAUGCCGCCGGGCGCCAUGCCUGCAGGUCGACUCUAGAAAACAUG,binding signal (log2 enrichment (interaction score)),[13],-7.63
same,binding signal (log2 enrichment (interaction score)),[14],-6.2
same,binding signal (log2 enrichment (interaction score)),[15],-5.76
same,binding signal (log2 enrichment (interaction score)),[16],-6.68
same,binding signal (log2 enrichment (interaction score)),[17],-5.59
same,binding signal (log2 enrichment (interaction score)),[18],-5.05
same,binding signal (log2 enrichment (interaction score)),[19],-7.15
same,binding signal (log2 enrichment (interaction score)),[20],-5.28

# Part of the list above, reformatted:
sequence	measurement	setting	value
GGCUAGAACUAGUGGAUCCCCCGGCGCCCGGCGGCUCGAGCCCGGGUAAGUGCAAAUAGUCUGCAUGCCGCCGGGCGCCAUGCCUGCAGGUCGACUCUAGAAAACAUG	binding signal (log2 enrichment (interaction score))	[19]	-7.15
same	binding signal (log2 enrichment (interaction score))	[20]	-5.28
